Article PMC10707054
Results are given in words; binding and its absence hold for the method and conditions named. Binding seen in cells or lysates may run through a third protein. Some binding calls cover weakened binding; strength is not graded here. For part of these data: Where a sequence is shown, tags or fusion partners need not be part of it.

Chains of the proteins cited; added tags and fusions are not shown.
UniProt Q01082: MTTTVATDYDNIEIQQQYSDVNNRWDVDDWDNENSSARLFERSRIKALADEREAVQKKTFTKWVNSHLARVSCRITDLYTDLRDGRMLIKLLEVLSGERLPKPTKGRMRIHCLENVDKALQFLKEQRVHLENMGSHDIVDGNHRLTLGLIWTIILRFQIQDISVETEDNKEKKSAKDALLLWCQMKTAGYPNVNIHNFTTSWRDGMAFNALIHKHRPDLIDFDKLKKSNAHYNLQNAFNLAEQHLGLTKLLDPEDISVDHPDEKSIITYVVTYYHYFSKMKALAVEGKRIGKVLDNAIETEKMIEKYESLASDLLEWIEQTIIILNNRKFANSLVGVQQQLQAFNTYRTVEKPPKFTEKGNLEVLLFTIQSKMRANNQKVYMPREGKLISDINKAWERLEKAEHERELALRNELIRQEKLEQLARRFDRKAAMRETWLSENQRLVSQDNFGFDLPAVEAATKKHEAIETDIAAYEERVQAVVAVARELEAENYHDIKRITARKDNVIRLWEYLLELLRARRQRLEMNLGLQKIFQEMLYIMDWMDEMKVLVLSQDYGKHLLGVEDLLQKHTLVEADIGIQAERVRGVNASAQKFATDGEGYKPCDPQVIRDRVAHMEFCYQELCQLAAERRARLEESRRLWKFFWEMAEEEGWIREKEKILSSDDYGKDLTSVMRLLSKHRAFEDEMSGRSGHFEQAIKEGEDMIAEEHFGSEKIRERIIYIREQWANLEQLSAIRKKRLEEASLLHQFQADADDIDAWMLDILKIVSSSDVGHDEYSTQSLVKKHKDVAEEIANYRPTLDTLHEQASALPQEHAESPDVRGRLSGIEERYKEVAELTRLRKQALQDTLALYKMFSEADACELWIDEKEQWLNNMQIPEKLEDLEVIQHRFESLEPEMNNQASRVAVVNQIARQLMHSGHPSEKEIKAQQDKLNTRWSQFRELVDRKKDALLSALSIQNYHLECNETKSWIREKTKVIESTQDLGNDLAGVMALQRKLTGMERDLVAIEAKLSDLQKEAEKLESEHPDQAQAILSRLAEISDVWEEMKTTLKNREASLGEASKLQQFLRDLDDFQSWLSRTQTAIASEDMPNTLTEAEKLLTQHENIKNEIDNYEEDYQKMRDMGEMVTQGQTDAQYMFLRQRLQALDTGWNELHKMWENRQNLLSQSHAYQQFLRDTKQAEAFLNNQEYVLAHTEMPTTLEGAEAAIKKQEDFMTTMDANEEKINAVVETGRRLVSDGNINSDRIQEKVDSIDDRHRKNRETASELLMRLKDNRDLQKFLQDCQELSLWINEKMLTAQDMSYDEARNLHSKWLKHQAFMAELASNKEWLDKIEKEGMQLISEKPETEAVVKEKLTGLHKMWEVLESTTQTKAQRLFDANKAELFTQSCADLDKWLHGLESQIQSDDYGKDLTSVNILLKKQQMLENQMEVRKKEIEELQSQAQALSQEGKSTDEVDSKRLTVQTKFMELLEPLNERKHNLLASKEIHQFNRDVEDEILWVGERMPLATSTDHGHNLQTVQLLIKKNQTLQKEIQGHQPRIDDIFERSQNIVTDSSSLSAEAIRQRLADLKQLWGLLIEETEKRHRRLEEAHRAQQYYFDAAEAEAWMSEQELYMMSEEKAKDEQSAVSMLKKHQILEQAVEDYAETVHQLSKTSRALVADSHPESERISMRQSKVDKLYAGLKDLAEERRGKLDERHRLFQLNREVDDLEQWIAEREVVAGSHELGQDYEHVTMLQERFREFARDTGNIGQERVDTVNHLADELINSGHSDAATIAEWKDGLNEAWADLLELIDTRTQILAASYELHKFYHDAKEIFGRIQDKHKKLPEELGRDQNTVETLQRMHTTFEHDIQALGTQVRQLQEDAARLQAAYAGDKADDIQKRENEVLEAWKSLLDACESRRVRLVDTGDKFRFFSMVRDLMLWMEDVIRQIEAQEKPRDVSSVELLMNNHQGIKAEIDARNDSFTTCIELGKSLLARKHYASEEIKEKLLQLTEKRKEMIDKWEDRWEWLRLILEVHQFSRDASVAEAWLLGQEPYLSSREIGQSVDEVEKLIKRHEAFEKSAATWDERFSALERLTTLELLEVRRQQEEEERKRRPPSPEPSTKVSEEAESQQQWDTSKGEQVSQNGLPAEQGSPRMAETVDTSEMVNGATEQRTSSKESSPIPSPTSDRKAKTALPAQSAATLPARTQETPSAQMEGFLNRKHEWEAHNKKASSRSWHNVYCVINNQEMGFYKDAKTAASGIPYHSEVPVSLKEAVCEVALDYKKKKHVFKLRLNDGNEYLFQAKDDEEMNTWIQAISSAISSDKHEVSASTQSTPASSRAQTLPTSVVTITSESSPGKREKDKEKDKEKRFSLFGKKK

Experiments:
[1] = molecular target: T1, Pituitary tumor-transforming gene 1 (PTTG1) (human (endogenous in JKT-1, SEM-1 and TCAM2)) (UniProt O95997); assay: co-IP; endogenous PTTG1 immunoprecipitated from TCAM2 lysate (IP α-PTTG1), Western blot for SPTBN1
T1 sequence: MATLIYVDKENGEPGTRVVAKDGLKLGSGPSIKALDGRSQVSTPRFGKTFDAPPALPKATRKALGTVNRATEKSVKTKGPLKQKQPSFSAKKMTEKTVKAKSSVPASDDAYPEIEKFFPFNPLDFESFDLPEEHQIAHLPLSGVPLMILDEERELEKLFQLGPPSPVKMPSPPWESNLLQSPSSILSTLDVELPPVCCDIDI

[2] = molecular target: T2, FLAG-PTTG1 (UniProt O95997); assay: co-IP; TCAM2 cells overexpressing FLAG-PTTG1 or FLAG-PTTG1Δ159; IP with M2 αFLAG antibody overnight at 4 °C, Dynabeads; IP lysis buffer 50 mM Tris-Cl pH 7.5, 150 mM NaCl, 1% Nonidet P-40, 1 mM EDTA; Western blot for endogenous SPTBN1, densitometry
T2 sequence: T1 sequence

[3] = molecular target: T1, Pituitary tumor-transforming gene 1 (PTTG1) (human (endogenous in JKT-1, SEM-1 and TCAM2)); assay: co-IP; endogenous PTTG1 immunoprecipitated from JKT-1 and SEM-1 lysates (IP α-PTTG1), Western blot for SPTBN1

- binding [1]: binds
- binding [2]: binds
- binding [3]: binds weakly
Substance: Spectrin-βII-chain (SPTBN1) (from UniProt Q01082 1-2364)
